Measured values from publication doi:10.1101/2023.10.26.564194.
No constants are given. Whether binding was seen depends on the method and setting. In cells and extracts the contact can be indirect. Some entries that bind do so weakly or less than the wild type.

The chains behind the UniProt entries cited, without tags or fusion partners.
UniProt P04792: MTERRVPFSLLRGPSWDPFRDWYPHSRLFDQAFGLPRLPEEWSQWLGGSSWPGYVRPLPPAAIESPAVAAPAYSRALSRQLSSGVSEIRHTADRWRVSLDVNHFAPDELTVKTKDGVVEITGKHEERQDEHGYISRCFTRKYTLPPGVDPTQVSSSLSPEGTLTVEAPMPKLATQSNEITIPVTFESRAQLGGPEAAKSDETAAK

Assays:
[1] = target: T1, nuclear factor erythroid 2-related factor 2 (NRF2), endogenous (human (endogenous in MDA-MB-231, HCT116, MCF7)) (UniProt Q16236); assay: co-IP
T1 sequence: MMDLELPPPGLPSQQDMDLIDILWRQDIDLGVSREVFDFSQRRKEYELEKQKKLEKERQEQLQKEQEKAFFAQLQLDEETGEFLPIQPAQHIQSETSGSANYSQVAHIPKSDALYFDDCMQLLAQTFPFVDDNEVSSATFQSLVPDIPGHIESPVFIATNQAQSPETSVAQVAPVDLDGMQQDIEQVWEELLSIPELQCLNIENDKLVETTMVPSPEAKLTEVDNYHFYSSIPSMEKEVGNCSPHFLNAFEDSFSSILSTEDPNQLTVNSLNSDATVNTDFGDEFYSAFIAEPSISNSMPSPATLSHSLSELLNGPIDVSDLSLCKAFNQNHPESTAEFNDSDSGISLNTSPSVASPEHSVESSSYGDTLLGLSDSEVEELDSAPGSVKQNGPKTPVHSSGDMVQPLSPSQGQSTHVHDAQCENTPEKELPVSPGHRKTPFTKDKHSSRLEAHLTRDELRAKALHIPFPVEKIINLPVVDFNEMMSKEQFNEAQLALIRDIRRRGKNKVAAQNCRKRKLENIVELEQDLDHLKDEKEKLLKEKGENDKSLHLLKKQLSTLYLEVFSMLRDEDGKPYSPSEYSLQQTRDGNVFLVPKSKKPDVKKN

[2] = target: T1, nuclear factor erythroid 2-related factor 2 (NRF2), endogenous (human (endogenous in MDA-MB-231, HCT116, MCF7)); assay: proximity ligation

With “HSP27, endogenous (from UniProt P04792 1-205)” the binding [1] was “binds” and the binding [2] was “binds”.
